Source: PubChem BioAssay AID1671190 (National Center for Advancing Translational Sciences (NCATS), 2021)
Hit rate of the full screen: of about 580,000 compounds, about 6,100 (1.1%) were called active. Inconclusive results, whose numbers are uncertain, are shown with a selection of clear calls. Calls follow the shape of the dose curve; as a rule, active = well fitted inhibition curve with a large enough effect; inconclusive = small, poorly fitted or top-dose-only effect, or another doubt; inactive = no such curve, though single readings can be large or run the other way. Potencies of inconclusive entries are doubtful fits and often do not repeat.
% is scaled to controls: 0 for no effect and ±100 for the full control effect; potency is read from the fitted curve at half-maximal effect.

By UniProt entry, the sequences of proteins in these tests, tags left out. Where a name states a change or a piece, a line headed by the entry shows the natural chain unless it says otherwise.
UniProt P18054: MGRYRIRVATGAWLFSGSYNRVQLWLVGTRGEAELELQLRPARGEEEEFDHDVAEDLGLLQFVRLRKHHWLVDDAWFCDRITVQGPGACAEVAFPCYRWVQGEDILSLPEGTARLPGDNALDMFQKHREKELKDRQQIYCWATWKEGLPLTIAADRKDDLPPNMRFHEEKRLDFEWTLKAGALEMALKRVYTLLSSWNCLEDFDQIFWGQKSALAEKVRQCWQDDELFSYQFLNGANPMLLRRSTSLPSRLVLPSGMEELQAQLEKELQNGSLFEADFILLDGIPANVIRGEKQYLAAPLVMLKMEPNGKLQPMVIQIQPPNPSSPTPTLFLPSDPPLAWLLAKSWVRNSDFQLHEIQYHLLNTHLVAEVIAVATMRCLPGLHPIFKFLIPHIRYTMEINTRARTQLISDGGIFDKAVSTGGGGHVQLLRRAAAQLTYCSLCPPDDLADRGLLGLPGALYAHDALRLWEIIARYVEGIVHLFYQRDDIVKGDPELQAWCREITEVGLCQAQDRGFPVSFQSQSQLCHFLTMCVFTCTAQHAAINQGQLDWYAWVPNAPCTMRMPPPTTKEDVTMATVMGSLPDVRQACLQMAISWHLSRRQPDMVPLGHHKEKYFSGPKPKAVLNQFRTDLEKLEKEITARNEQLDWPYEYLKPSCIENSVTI

Each molecule was assayed against Polyunsaturated fatty acid lipoxygenase ALOX12 (Homo sapiens) (UniProt P18054) (assay: Primary qHTS assay for inhibitors of human arachidonate 12S-lipoxygenase (ALOX12): Round 2). Conditions: purified 12hLO, xylenol orange hydroperoxide absorbance; activity change, negative = inhibition: at 108 µM (top of the series) unless noted.
Summary of the method: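 Purified human 12hLO at 150 nM in 25 mM Hepes, 0.01% Triton X-100, pH 7.0, preincubated 15 min at room temperature with compound. Reaction started with 40 uM arachidonic acid, 30 min at room temperature. Hydroperoxide measured by Fe-xylenol orange, 573/405 nm absorbance ratio.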
With `Cn1ncc2c(C(=O)NCc3ccc(F)cc3)cc(-c3ccc(Cl)nc3)nc21` the Potency was inconclusive: 56.2 µM [inhibitor, partial curve, poor fit]. For `CC1CC(C)CN(C(=S)SCc2nc(N)nc(Nc3ccccc3)n2)C1` (centres undefined), the Potency was inconclusive: 126 µM [inhibitor, single point]. In the case of `O=C(C1=C[C@@H](c2ccccc2)C[C@@H](OCc2ccc(CO)cc2)O1)N1CCN(Cc2ccc3c(c2)OCO3)CC1`, the “activity change, negative = inhibition” value is reported as inactive: 3.92%. In the case of `Cc1cc(NCc2ccc(Cl)cc2)n2cnnc2n1`, the “activity change, negative = inhibition” value is reported as inactive: -7.7%. With `CC(C)NC(=O)C[C@@H]1C[C@H]2O[C@H](CNC3CCNCC3)[C@@H](O)[C@H]2O1` the Potency was inconclusive: 25.1 µM [inhibitor, full curve]. With `CCc1cccc(NC(=O)Cn2ccn3nc(-c4ccc(OC)c(OC)c4)cc3c2=O)c1` the Potency was inconclusive: 141 µM [inhibitor, single point]. `CC(=O)C1=C(O)C(=O)N(CCO)C1c1ccccc1` (centres undefined) was tested, and the “activity change, negative = inhibition” value was inactive: -15.6%. For `CCn1ccnc1CN(C)Cc1cn(-c2cccc(C)c2)nc1-c1cccc(F)c1`, the “activity change, negative = inhibition” value was inactive: -25.1%. With `Cc1ccc(Cc2c(-c3ccc(Cl)cc3)nc3ccc(Br)cn23)cc1` the Potency was inconclusive: 44.7 µM [inhibitor, partial curve]. `CNC(=O)c1ccc(NC(=O)CCc2c(C)noc2C)cc1` was tested, and the Potency was inconclusive: 112 µM [inhibitor, single point]. For `COc1cccc(Nc2nc(-c3ccc(CNC(C)=O)cc3)cs2)c1`, the Potency was active: 15.8 µM. In the case of `CCOC(=O)CS(=O)(=O)c1nc(-c2ccccc2)cc(C(F)(F)F)n1`, the “activity change, negative = inhibition” value is reported as inactive: 59.6%. In the case of `Cc1ccc(NC(=O)NC2CCN(S(=O)(=O)c3ccc(F)cc3)CC2)cc1`, the “activity change, negative = inhibition” value is reported as inactive: -25.2%. For `CCCCNc1c(-c2ccc(Sc3ccc(OC)cc3)cc2)nc2cc(C)ccn12`, the Potency was inconclusive: 35.5 µM [inhibitor, partial curve]. In the case of `CCOC(=O)c1cc(NCc2ccccc2)ccc1N1CCOCC1`, the “activity change, negative = inhibition” value is reported as inactive: 9.75%. In the case of `CCCCn1nnnc1CSc1nnc(-c2ccccc2)n1-c1ccccc1`, the “activity change, negative = inhibition” value is reported as inactive: 8.84%. In the case of `CNCc1ccccc1-c1ccccc1`, the Potency is reported as inconclusive: 158 µM [inhibitor, partial curve, poor fit]. For `Cc1nc([C@H]2CCN(Cc3cc(F)c(F)cc3F)C[C@H]2NC(=O)C2CC2)n[nH]1`, the “activity change, negative = inhibition” value was inactive: 66.5%. `COc1ccc(OC)c(NC(=O)c2c(NCc3ccc(N(C)C)cc3)sc3c2CCCC3)c1` was tested, and the Potency was inconclusive: 79.4 µM [inhibitor, partial curve, poor fit]. For `COc1ccc2oc(-c3cccc(NC(=O)CC45CC6CC(CC(C6)C4)C5)c3)nc2c1`, the Potency was inconclusive: 100 µM [inhibitor, partial curve, poor fit]. For `Cc1ccc([N+](=O)[O-])cc1NC(=O)Cc1cccs1`, the Potency was inconclusive: 44.7 µM [inhibitor, partial curve, poor fit]. In the case of `CCN(CC)CCN(C(=O)CCOc1ccccc1)c1nc2c(F)cc(F)cc2s1`, the Potency is reported as inconclusive: 50.1 µM [inhibitor, partial curve, poor fit]. `O=C(Nc1ccc(C(F)(F)F)cc1)C1CCCCN1S(=O)(=O)c1ccccc1` (centres undefined) was tested, and the Potency was inconclusive: 10 µM [inhibitor, partial curve, poor fit]. With `O=C(CCCc1ccccc1)Nc1ccnn1C1CCN(Cc2ccccc2)CC1` the “activity change, negative = inhibition” value was inactive: -14.6%. For `Cc1c(C)n(CCCN2CCOCC2)c2ncn3nc(-c4ccc(F)cc4)nc3c12`, the “activity change, negative = inhibition” value was inactive: -7.94%. `Cc1onc(-c2c(F)cccc2Cl)c1C(=O)NC(=S)Nc1c(C)n(C)n(-c2ccccc2)c1=O` was tested, and the “activity change, negative = inhibition” value was inactive: 1.75%. `O=C1Nc2ccccc2/C1=N\c1sc2c(c1C(=O)Nc1ccccc1)CCCC2` was tested, and the Potency was inconclusive: 50.1 µM [inhibitor, partial curve, poor fit]. In the case of `CC(C)=CCCC(C)CC=O` (centres undefined), the “activity change, negative = inhibition” value is reported as inactive: 5.6% [at 176 µM]. In the case of `COc1ccc(C(=O)COC(=O)Cc2coc3cc4c(cc23)CCC4)cc1OC`, the “activity change, negative = inhibition” value is reported as inactive: 44.8%. For `Cc1ccc(NC(=O)NC(=O)CSc2nnnn2C)c(C)c1`, the Potency was inconclusive: 4.47 µM [inhibitor, full curve, poor fit]. In the case of `CCn1cc(CN2CCCC23CCN(c2ccc(C(F)(F)F)cn2)CC3)cc1C#N`, the “activity change, negative = inhibition” value is reported as inactive: 52.7%. For `NC1=NC[C@H](Cc2ccc(O)cc2)N1CCC12CC3CC(CC(C3)C1)C2`, the Potency was inconclusive: 70.8 µM [inhibitor, partial curve, poor fit]. In the case of `CCNc1c(NC(=O)Nc2cccc(OC)c2)c(=O)oc2ccccc12`, the Potency is reported as inconclusive: 126 µM [inhibitor, single point]. `COc1cc(/C=C2/C(=O)N(c3cccc(Br)c3)N=C2C)cc(OC)c1O` was tested, and the Potency was inconclusive: 44.7 µM [inhibitor, partial curve, poor fit]. In the case of `CN(C(=O)Nc1ccccc1)C1CCCCC1`, the Potency is reported as inconclusive: 2.82 µM [inhibitor, single point]. In the case of `Fc1ccc(CNC2=NCCNC23CCCCCC3)cc1`, the “activity change, negative = inhibition” value is reported as inactive: -2.72%. For `COC(=O)C1=C(C)N(C)C(=NCC2CC2)NC1c1cccc(Cl)c1` (centres undefined), the Potency was inconclusive: 44.7 µM [inhibitor, partial curve, poor fit]. In the case of `O=[N+]([O-])c1cccc(S(=O)(=O)N/N=C/c2ccc(O)cc2)c1`, the Potency is reported as inconclusive: 63.1 µM [inhibitor, partial curve, poor fit]. In the case of `CN(Cc1ccccc1)Cc1cc(C[C@H]2CNCC[C@H]2CC(=O)N2CCOCC2)no1`, the Potency is reported as inconclusive: 22.4 µM [inhibitor, full curve]. In the case of `Cc1ccccc1CN1CCc2c(OCC(=O)N3CCCCC3)cccc2C1=O`, the “activity change, negative = inhibition” value is reported as inactive: -5.05%. For `CCOc1ccc(C(=O)NC2C(=O)N3C(C(=O)O)=C(COC(C)=O)CSC23)cc1OCC` (centres undefined), the “activity change, negative = inhibition” value was inactive: -15%. In the case of `C[C@@H]1CN([C@H](C)CO)C(=O)CCCn2cc(nn2)CO[C@H]1CN(C)S(=O)(=O)c1cccc(C#N)c1`, the Potency is reported as inconclusive: 44.7 µM [inhibitor, partial curve, poor fit]. In the case of `C=CCNc1nc2c(c(=O)n(C)c(=O)n2C)n1Cc1ccccc1Cl`, the activity change, negative = inhibition is reported as inconclusive: -33.9% [inhibitor]. With `O=C(N/N=C/c1ccsc1)c1cccs1` the “activity change, negative = inhibition” value was inactive: -2.85%. `Cc1ccc(/C=C2\CCc3ccccc3C2=O)o1` was tested, and the Potency was inconclusive: 3.16 µM [inhibitor, full curve, poor fit]. With `CCOC(=O)N1CCN(CC(O)COCC2=CCC3CC2C3(C)C)CC1` (centres undefined) the Potency was inconclusive: 0.447 µM [inhibitor, full curve, poor fit]. For `O=C(NCc1ccco1)c1ccccc1F`, the Potency was inconclusive: 89.1 µM [inhibitor, single point]. For `CCc1ccc2ncc(S(=O)(=O)c3ccc(C)c(C)c3)c(N3CCCC3)c2c1`, the “activity change, negative = inhibition” value was inactive: 0.0584%. In the case of `CCOC(=O)C(=NC(C)CC)NNc1cccc(C(F)(F)F)c1` (centres undefined), the Potency is reported as inconclusive: 14.1 µM [inhibitor, full curve, poor fit]. `O=C(CSc1ccc(-c2ccc(F)cc2)nn1)NC1CCCCC1` was tested, and the “activity change, negative = inhibition” value was inactive: 5.74%. `Nc1ncnc2c1ccn2[C@H]1CN(Cc2ccc3c(c2)OCO3)C[C@@H](CO)O1` was tested, and the Potency was inconclusive: 141 µM [inhibitor, partial curve, poor fit]. With `Cc1cc(NC(=O)CSc2nnc(-c3cccnc3)n2C2CC2)no1` the “activity change, negative = inhibition” value was inactive: -15.9%. For `COc1ccc2c3c(n(C)c2c1)[C@@H](CO)N(C(=O)c1cnccn1)CC31CN(C(C)=O)C1`, the Potency was inconclusive: 112 µM [inhibitor, single point]. For `NC(=O)c1ccc(NC(=O)CCc2ncc(-c3ccccc3F)o2)cc1`, the Potency was inconclusive: 44.7 µM [inhibitor, partial curve, poor fit]. For `Cc1cc(C)c(S(C)(=O)=O)c(=O)[nH]1`, the “activity change, negative = inhibition” value was inactive: 13.6%. `COC(CNC(=O)CN1CCN(Cc2ccc(F)cc2Cl)C1=O)OC` was tested, and the Potency was inconclusive: 39.8 µM [inhibitor, partial curve, poor fit]. With `Cc1ccc(NC(=O)CN(C)C(=O)COC(=O)C(C)(C)Oc2ccc(Cl)cc2)cc1` the Potency was inconclusive: 50.1 µM [inhibitor, single point]. For `COc1ccc(NS(=O)(=O)c2cc(N=Nc3c(O)[nH]c(=O)[nH]c3=O)ccc2Cl)cc1`, the Potency was inconclusive: 50.1 µM [inhibitor, partial curve, poor fit]. With `COCCCNCCSc1ccc(Cl)cc1` the Potency was inconclusive: 112 µM [inhibitor, single point]. In the case of `CCC1(CC)NC(=O)N(CC(=O)OC(C)C(=O)Nc2cc([N+](=O)[O-])ccc2OC)C1=O` (centres undefined), the Potency is reported as inconclusive: 100 µM [inhibitor, single point]. With `Clc1ccc(Sc2cc(N3CCOCC3)nc(-c3ccccc3)n2)cc1` the “activity change, negative = inhibition” value was inactive: 5.98%. In the case of `Cc1ccccc1NCc1ccc(O)c2ncccc12`, the Potency is reported as inconclusive: 1.58 µM [inhibitor, full curve, poor fit]. `CC(C)c1ccc(NC(=O)COC(=O)CC2CCCC2)cc1` was tested, and the Potency was “inactive”. `O=[N+]([O-])c1ccc(N/N=C/C=C/c2ccco2)cc1` was tested, and the Potency was inconclusive: 22.4 µM [inhibitor, partial curve, poor fit]. With `COCc1c(N)c(C)nc(Cl)c1C#N` the Potency was inconclusive: 0.891 µM [inhibitor, partial curve, poor fit]. `O=C(O)COc1ccccc1/C=N/n1c(C2CCCCC2)n[nH]c1=S` was tested, and the “activity change, negative = inhibition” value was inactive: 29.4%. With `C=CCOC(=O)C1=C(C)NC(SCC(=O)Nc2ccc(C)c(Cl)c2)=C(C#N)C1c1ccco1` (centres undefined) the Potency was inconclusive: 17.8 µM [inhibitor, partial curve, poor fit]. For `COC(=O)c1ccc2nc(-c3cccc(Cl)c3)c(CC3CCCCC3)n2c1`, the Potency was inconclusive: 35.5 µM [inhibitor, single point]. In the case of `COc1ccc(OC)c(CN2CCN(Cc3cccc4ccccc34)CC2)c1`, the Potency is reported as inconclusive: 17.8 µM [inhibitor, partial curve, poor fit].
